# Some of the results follow. This data set is noisy: repeats of one test often differ as much as different tests do.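 Free-swimming zebrafish larvae were scored for O-bend response probability to dark flashes (naive: first five; training: remaining flashes of four 60-flash blocks; test: later 60-flash block) and for turning toward alternating leftward/rightward LED motion (OMR). Six treated larvae were compared with sixty 0.1% DMSO controls; |SSMD|≥2 defined a hit.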
# Test system: Danio rerio larvae (5 dpf, TLF)
# Assay: Prob-Naive (SSMD vs DMSO vehicle); higher = higher than vehicle (e.g. higher dark-flash O-bend response probability, or better optomotor performance)
# Conditions: 10 µM; pre-incubation: 30-90 min
row,SMILES,Prob-Naive
1,Cc1cc(C(=O)CN2CCCC2)c(C)n1-c1ccc(F)cc1,0.255
2,CN(C)C(=O)Oc1ccc[n+](C)c1.[Br-] [Pyridostigmine Bromide],0.759
3,"C/C(=C\c1csc(C)n1)[C@H]1C[C@@H]2O[C@]2(C)CCC[C@H](C)[C@H](O)[C@@H](C)C(=O)C(C)(C)[C@H](O)CC(=O)O1 [Epothilone B (EPO906, Patupilone)]",0.454
4,COc1ccc(C(=O)N2CCCC2=O)cc1 [Aniracetam],0.614
5,O=P1(NCCCl)OCCCN1CCCl (stereo unspecified) [Ifosfamide],0.121
6,O=C1CCC[C@@H]2[C@@H]3CCCN4CCC[C@H](CN12)[C@@H]34 [(+)-Matrine],0.394
7,NCCC(O)(P(=O)([O-])O)P(=O)([O-])O.[Na+].[Na+] [Pamidronate Disodium],0.511
8,CN1CCc2cccc3c2C1Cc1ccc(O)c(O)c1-3.CN1CCc2cccc3c2C1Cc1ccc(O)cc1-3 (stereo not drawn) [R-(-)-Apomorphine HCl Hemihydrate],-0.621
9,C[C@]12CC[C@H](O)C[C@@H]1CC[C@@H]1[C@H]2CC[C@]2(C)C(=O)CC[C@@H]12 [Epiandrosterone],-1.19
10,CN1CCN(c2nc3ccccc3nc2Cl)CC1,0.213
11,Cc1cccc(Cc2c[nH]cn2)c1C.Cl [Detomidine HCl],-1.86
12,Cc1cccc(C)c1NC(=O)CN1CCCC1=O [Nefiracetam],-0.163
13,c1cc2c(cc1[C@H]1OC[C@H]3[C@H]1CO[C@@H]3c1ccc3c(c1)OCO3)OCO2 [Sesamin],-2.91
14,C[C@H]1CCC/C=C/[C@@H]2C[C@H](O)C[C@H]2[C@H](O)/C=C/C(=O)O1 [Brefeldin A],0.464
15,CN1[C@@H]2C[C@@H](O)C[C@H]1[C@@H]1O[C@@H]12 [Scopine],-1.09
16,C=C1C[C@@H]2[C@@H](CC[C@@]3(C)C(=O)CC[C@@H]23)[C@@]2(C)C=CC(=O)C=C12 [Exemestane],-0.253
17,CCN(C)C(=O)Oc1cccc([C@H](C)N(C)C)c1.O=C(O)[C@H](O)[C@@H](O)C(=O)O [Rivastigmine Tartrate],-0.226
18,CC(=O)O[C@H]1C[C@@H]2CC[C@@H]3[C@@H](CC[C@]4(C)[C@H](OC(C)=O)[C@@H]([N+]5(C)CCCCC5)C[C@@H]34)[C@@]2(C)C[C@@H]1[N+]1(C)CCCCC1.[Br-].[Br-] [Pancuronium dibromide],0.374

row,SMILES,Prob-Naive
1,C[C@@H]1C(=O)O[C@@H]2O[C@@]3(C)CC[C@H]4[C@@H](C)CC[C@@H]1[C@@]24OO3 [Artemisinin],0.255
2,C[C@]12CC[C@H](O)CC1=CC[C@@H]1[C@H]2CC[C@]2(C)C(=O)CC[C@@H]12 [Dehydroepiandrosterone (DHEA)],-0.214
3,CN(C)C(=O)C(CCN1CCC(O)(c2ccc(Cl)cc2)CC1)(c1ccccc1)c1ccccc1.Cl [Loperamide HCl],-0.171
4,Cn1cc(C2=C(c3cn(C4CCN(Cc5ccccn5)CC4)c4ccccc34)C(=O)NC2=O)c2ccccc21,-0.414
5,C=CCN.Cl.ClCC1CO1 (stereo unspecified) [Sevelamer HCl],-0.0609
6,Cc1cccc([C@H](C)c2cnc[nH]2)c1C.Cl [Dexmedetomidine HCl (Precedex)],-2.5
7,CCc1c(C(=O)C(N)=O)c2c(OCC(=O)O)cccc2n1Cc1ccccc1,0
8,CNC(=O)Oc1ccc2c(c1)[C@]1(C)CCN(C)C1N2C.O=C(O)c1ccccc1O (stereo partly specified) [Physostigmine Salicylate],0.433
9,Cc1cccc(C)c1NC1=NCCCS1.Cl [Xylazine HCl],-0.038
10,Cc1ccccc1-n1c(Cn2cnc3c(N)ncnc32)nc2cccc(C)c2c1=O,0.26
11,CCC1(c2ccc(N)cc2)CCC(=O)NC1=O (stereo unspecified) [Aminoglutethimide],0.214
12,Cc1sc2c(c1C)C(c1ccc(Cl)cc1)=NC(CC(=O)Nc1ccc(O)cc1)c1nnc(C)n1-2 (stereo unspecified),0.587
13,Cc1sc2c(c1C)C(c1ccc(Cl)cc1)=NC(CC(N)=O)c1nnc(C)n1-2 (stereo unspecified),0.146
14,CC[N+]1(C)CCCC(OC(=O)C(O)(c2ccccc2)c2ccccc2)C1.[Br-] (stereo unspecified) [Pipenzolate Bromide],0.457
15,O=C(O)C=CC(=O)O.O=C(O)C=CC(=O)O.c1ccc2nc(N3CCNCC3)ccc2c1 [Quipazine Maleate],-0.048
16,CCN(CC)C(=O)c1ccc(C2=CC3(CCNCC3)Oc3cccc(O)c32)cc1.Cl,0.357
17,CCC(COC(=O)c1cc(OC)c(OC)c(OC)c1)(c1ccccc1)N(C)C (stereo unspecified) [Trimebutine],-1.08
18,CC(=O)Nc1cc([As](=O)(O)O)ccc1O [Acetarsone],0.298

# Reprinted at random: two records from the list
row,SMILES,Prob-Naive
18,CC(=O)O[C@H]1C[C@@H]2CC[C@@H]3[C@@H](CC[C@]4(C)[C@H](OC(C)=O)[C@@H]([N+]5(C)CCCCC5)C[C@@H]34)[C@@]2(C)C[C@@H]1[N+]1(C)CCCCC1.[Br-].[Br-] [Pancuronium dibromide],0.374
2,CN(C)C(=O)Oc1ccc[n+](C)c1.[Br-] [Pyridostigmine Bromide],0.759

# — the supplement of paper PMC10727501
